This note sets out measurements from publication PMC11151598.

Sequences of proteins named here, by UniProt entry; tags and fusion partners are left off.
UniProt P26196: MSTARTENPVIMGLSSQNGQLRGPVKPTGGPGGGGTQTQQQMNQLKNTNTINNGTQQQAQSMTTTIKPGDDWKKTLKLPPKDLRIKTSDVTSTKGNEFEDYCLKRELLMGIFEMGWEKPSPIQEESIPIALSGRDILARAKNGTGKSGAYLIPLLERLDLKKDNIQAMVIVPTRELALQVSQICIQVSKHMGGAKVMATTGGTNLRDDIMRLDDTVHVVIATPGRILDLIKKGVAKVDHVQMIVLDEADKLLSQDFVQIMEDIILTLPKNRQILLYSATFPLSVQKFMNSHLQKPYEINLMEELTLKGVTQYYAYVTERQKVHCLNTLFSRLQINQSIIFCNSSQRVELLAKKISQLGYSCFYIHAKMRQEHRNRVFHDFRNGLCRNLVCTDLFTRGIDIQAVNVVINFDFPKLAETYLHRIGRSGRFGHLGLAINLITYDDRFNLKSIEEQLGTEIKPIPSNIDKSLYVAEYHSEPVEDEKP

The target of the experiment is DDX6 (human (endogenous in H1299, H1792, A549 and H1944)) (UniProt P26196). As to the kind of experiment: co-IP; endogenous proteins in A549 and H1944 cells; lysis in ice-cold RIPA buffer with protease inhibitors; anti-Rab3B, anti-DDX6 or IgG overnight at 4 °C, protein A/G agarose beads; Western blot. A general note: Immunoblotting shows a protein as a band on a membrane.

No constants are given. Whether binding was seen depends on the method and setting. Binding seen in cells or lysates may run through a third protein. Some binding calls cover weakened binding; strength is not graded here.

B1: endogenous Rab3B (protein, UniProt P20337 1-219)
chain: MASVTDGKTGVKDASDQNFDYMFKLLIIGNSSVGKTSFLFRYADDTFTPAFVSTVGIDFKVKTVYRHEKRVKLQIWDTAGQERYRTITTAYYRGAMGFILMYDITNEESFNAVQDWATQIKTYSWDNAQVILVGNKCDMEEERVVPTEKGQLLAEQLGFDFFEASAKENISVRQAFERLVDAICDKMSDSLDTDPSMLGSSKNTRLSDTPPLLQQNCSC
Turning to B1, the binding entry is “binds”.
